Test results taken from paper PMC5477581.
Results are given in words; binding and its absence hold for the method and conditions named. Binding seen in cells or lysates may run through a third protein. Some results given as binding are weak or reduced against the parent protein; the word gives no strength. Where a sequence is shown, tags or fusion partners need not be part of it.

Chains of the proteins cited; added tags and fusions are not shown.
UniProt P09874: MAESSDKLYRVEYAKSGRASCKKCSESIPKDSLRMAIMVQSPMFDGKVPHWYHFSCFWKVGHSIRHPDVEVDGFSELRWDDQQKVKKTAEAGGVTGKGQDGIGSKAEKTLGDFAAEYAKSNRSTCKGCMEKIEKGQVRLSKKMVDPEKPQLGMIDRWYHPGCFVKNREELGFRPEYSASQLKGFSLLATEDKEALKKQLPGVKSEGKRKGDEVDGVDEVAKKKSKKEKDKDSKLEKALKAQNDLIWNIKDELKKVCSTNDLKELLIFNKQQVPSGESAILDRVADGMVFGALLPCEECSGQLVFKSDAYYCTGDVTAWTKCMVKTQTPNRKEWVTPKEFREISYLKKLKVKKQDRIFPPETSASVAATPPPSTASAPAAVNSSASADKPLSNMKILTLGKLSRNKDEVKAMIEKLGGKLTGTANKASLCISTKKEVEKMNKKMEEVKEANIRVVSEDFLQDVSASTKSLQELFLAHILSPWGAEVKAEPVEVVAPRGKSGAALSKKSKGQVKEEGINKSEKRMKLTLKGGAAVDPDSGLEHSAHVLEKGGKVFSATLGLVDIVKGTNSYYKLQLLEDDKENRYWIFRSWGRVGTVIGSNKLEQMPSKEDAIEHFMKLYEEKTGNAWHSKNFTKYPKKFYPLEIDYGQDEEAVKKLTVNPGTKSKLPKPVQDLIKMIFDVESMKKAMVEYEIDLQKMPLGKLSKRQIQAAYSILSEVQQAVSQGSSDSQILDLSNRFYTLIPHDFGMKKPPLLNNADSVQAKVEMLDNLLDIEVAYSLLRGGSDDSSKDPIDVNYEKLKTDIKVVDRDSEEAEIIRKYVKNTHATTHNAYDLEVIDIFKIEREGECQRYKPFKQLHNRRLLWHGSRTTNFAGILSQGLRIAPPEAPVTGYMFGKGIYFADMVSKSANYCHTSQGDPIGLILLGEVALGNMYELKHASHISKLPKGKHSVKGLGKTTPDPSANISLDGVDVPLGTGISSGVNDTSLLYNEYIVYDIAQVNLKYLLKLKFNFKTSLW

Target: T1, FLAG-AIMP2 (aminoacyl tRNA synthetase complex-interacting multifunctional protein 2) (UniProt Q13155)
T1 sequence: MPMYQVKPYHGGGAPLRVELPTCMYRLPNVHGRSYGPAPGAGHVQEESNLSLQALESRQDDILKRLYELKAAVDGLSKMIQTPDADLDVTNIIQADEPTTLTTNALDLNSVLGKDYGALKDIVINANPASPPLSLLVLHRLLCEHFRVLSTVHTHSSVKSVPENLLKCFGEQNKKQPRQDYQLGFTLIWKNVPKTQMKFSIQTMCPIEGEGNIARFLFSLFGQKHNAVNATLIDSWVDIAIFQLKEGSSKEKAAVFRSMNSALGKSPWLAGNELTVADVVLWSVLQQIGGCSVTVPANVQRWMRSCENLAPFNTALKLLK
Experiment: co-IP; anti-FLAG antibody on protein G Sepharose; lysates (1% NP-40 in PBS) of SH-SY5Y cells transfected with FLAG-AIMP2 with mock, WT VPS35 or D620N VPS35; 4 °C overnight; washes incl. 500 mM NaCl buffer; blots for FLAG, PARP1; IgG as negative control

binding: binds
Substance: poly(ADP-ribose) polymerase-1 (PARP1), endogenous (from UniProt P09874 1-1014) (enzyme)
